Data as given in PubChem BioAssay AID540276 (National Center for Advancing Translational Sciences (NCATS), 2011).
About 5,400 (1.8%) of roughly 300,000 compounds were called active. This list was built around the results that the source calls inconclusive (neither active nor inactive); the mix of calls is not that of the screen. Calls come from the whole dose curve; tested in HEK293 cells. A potency beside an inconclusive call is a rough fit, not a confirmed value.

Assay: qHTS for inhibitors of binding or entry into cells for Marburg Virus
Settings: Marburg virus pseudotyped entry inhibition, cell reporter; activity change, negative = inhibition: at 37.8 µM (top of the series) unless noted
% is set by controls: 0 for no effect and ±100 for the full control effect; potency is the fitted concentration of half-maximal effect.

Row | SMILES | activity change, negative = inhibition | Potency
1 | Cc1ccc(OC(=O)c2ccc(C)c(C)c2)cn1 | inactive: 13.3% | –
2 | Cc1cccc(C)c1NC(=O)CSc1nccn1C | inactive: -10.8% [at 46.1 µM] | –
3 | CCOc1ccc(CNC(=O)c2cccc(Nc3nc4ccccc4n4nnnc34)c2)cc1OC | – | inconclusive: 6.31 µM [inhibitor, full curve, poor fit]
4 | CCOc1ccc(NC(=O)c2oc3ccccc3c2NC(=O)C(C)Oc2ccccc2)cc1 (centres undefined) | – | inconclusive: 35.5 µM [inhibitor, single point]
5 | O=C(COC(=O)c1ccccc1O)NC(=O)NCc1ccccc1 | inactive: 6.03% | –
6 | O=S(Cc1ccc(Cl)cc1)CC(O)(c1ccccc1)c1ccccc1 (centres undefined) | inactive: 2.59% | –
7 | O=C(COc1ccc(Cl)cc1)Nc1nnc(-c2ccc3c(c2)CCCC3)o1 | – | inconclusive: 0.206 µM [activator, full curve]
8 | COc1cccc(NC(=O)COC(=O)c2ccccc2C(=O)N(C)c2ccccc2)c1 | inactive: 1.06% | –
9 | OCCC1CN(Cc2ccccc2OC2CCCC2)CCN1Cc1ccsc1 (centres undefined) | – | inconclusive: 20.6 µM [inhibitor, single point]
10 | CCCCC1CC(C)(C(=O)CSc2nc3ccccc3s2)OC1=O (centres undefined) | – | inconclusive: 2.24 µM [inhibitor, single point]
11 | CCN(Cc1ccccc1)C(c1ccc(C(F)(F)F)cc1)c1nnnn1C(C)(C)C (centres undefined) | – | inconclusive: 22.4 µM [inhibitor, single point]
12 | CCCCCc1c(C)nc(Nc2ccccc2)[nH]c1=O | – | inconclusive: 35.5 µM [inhibitor, single point]
13 | COc1ccccc1NC(=O)c1ccc(Br)o1 | inactive: -1.64% | –
14 | COc1ccc(CCNC(=O)CSc2cn(CCNC(=O)c3ccc(OC)c(OC)c3)c3ccccc23)cc1OC | – | inconclusive: 35.5 µM [inhibitor, partial curve, poor fit]
15 | COc1ccc(C/C(C)=N/NC(=O)c2ccncc2)cc1 | – | inconclusive: 35.5 µM [activator, single point]
16 | COc1cc(C2C3C(=O)N(c4ccccc4)C(=O)C3ON2c2ccccc2)ccc1O (centres undefined) | – | inconclusive: 4.61 µM [activator, partial curve, poor fit]
17 | O=C(CN1C(=O)C(=O)N(Cc2ccccc2)C1=O)Nc1ccc(OC(F)F)cc1 | inactive: 26.8% | –
18 | O=C(O)CSc1nc2ccccc2nc1N1CCCCC1 | inactive: 1.96% [at 46.1 µM] | –
19 | S=C1NC(c2ccccc2)=NCN1c1ccccc1 | – | inconclusive: 4.11 µM [activator, full curve, poor fit]
20 | COc1ccccc1C(CNc1ncnc2sc(C)c(C)c12)N(C)C (centres undefined) | – | inconclusive: 16.4 µM [inhibitor, partial curve, poor fit]
21 | COc1cccc(C(=O)Nc2nc3ccc(S(C)(=O)=O)cc3s2)c1 | – | inconclusive: 6.31 µM [activator, partial curve, poor fit]
22 | COc1ccccc1-c1cc(C(F)(F)F)nc(S(=O)(=O)CCCC(=O)O)n1 | – | inconclusive: 4.61 µM [inhibitor, partial curve, poor fit]
23 | O=C1CC(N2CCN(c3nc4ccccc4s3)CC2)C(=O)N1Cc1cccs1 (centres undefined) | – | inconclusive: 31.6 µM [inhibitor, single point]

Arranged by molecular weight (smallest number first): part of the list above
Row | SMILES | activity change, negative = inhibition | Potency
1 | Cc1ccc(OC(=O)c2ccc(C)c(C)c2)cn1 | inactive: 13.3% | –
21 | COc1cccc(C(=O)Nc2nc3ccc(S(C)(=O)=O)cc3s2)c1 | – | inconclusive: 6.31 µM [activator, partial curve, poor fit]
17 | O=C(CN1C(=O)C(=O)N(Cc2ccccc2)C1=O)Nc1ccc(OC(F)F)cc1 | inactive: 26.8% | –

Remaining list, next part

Row | SMILES | activity change, negative = inhibition | Potency
24 | CC1CCC(NC(=O)C2CCN(c3nc4ccccc4s3)CC2)CC1 (centres undefined) | inactive: -16.3% [at 46.1 µM] | –
25 | CCOc1ccc(N(C(=O)Cn2nnc3ccccc32)C(C(=O)NC(C)(C)CC)c2cccn2C)cc1 (centres undefined) | inactive: 21.2% | –
26 | COc1ccccc1OCC(=O)Nc1cc(S(=O)(=O)N2CCOCC2)ccc1N1CCCCC1 | – | inconclusive: 11.2 µM [inhibitor, partial curve, poor fit]
27 | Cc1ccccc1NC1=C(Cl)C(=O)OC1NC(=O)c1ccccc1 (centres undefined) | inactive: 21% | –
28 | O=C(OCc1ccc(Cl)c(Cl)c1)c1cccnc1Cl | inactive: 9.06% [at 46.1 µM] | –
29 | COc1cc2c(cc1NC(=O)CSc1nccn1C)oc1ccccc12 | – | inconclusive: 29.1 µM [inhibitor, single point]
30 | COc1ccccc1NC(=S)N1CCCc2ccccc21 | – | inconclusive: 1.26 µM [inhibitor, single point]
31 | O=C(CSc1nnc(-c2ccccc2)n1Cc1ccccc1)NNC(=O)c1ccccc1O | – | inconclusive: 1.26 µM [inhibitor, single point]
32 | CC(NC(=O)OCc1ccccc1)C(=O)OCN1C(=O)c2ccccc2C1=O (centres undefined) | inactive: -5.71% | –
33 | Cc1c(C(=O)N2CCCCC2)c(S(=O)(=O)N2CCN(c3ccccc3F)CC2)c(C)n1C | inactive: 7.81% [at 46.1 µM] | –
34 | O=C(O)C1CCCCC1C(=O)NCc1ccccc1 (centres undefined) | – | inconclusive: 0.461 µM [activator, partial curve, poor fit]
35 | COc1ccc(CN2c3cc(S(=O)(=O)N4CCOCC4)ccc3N3CCCC32)cc1 (centres undefined) | inactive: 11.4% | –
36 | CCCc1cc(=O)n2[nH]c(NC(=O)c3ccco3)nc2n1 | – | inconclusive: 8.91 µM [inhibitor, partial curve]
37 | Cc1cccc(-c2cc3nc4c(c(NCc5ccco5)n3n2)CCCC4)c1 | – | inconclusive: 29.1 µM [inhibitor, single point]
38 | COc1ccc(NC(=O)c2ccc3snnc3c2)cc1OC | inactive: 1.86% [at 46.1 µM] | –
39 | CCOc1ccc(-n2c(SCc3ccc([N+](=O)[O-])cc3)nnc2-c2ccc(OC)cc2)cc1 | – | inconclusive: 29.1 µM [inhibitor, single point]
40 | COc1ccc(-c2cn3c(C)c(C(=O)NC(C)C)sc3n2)cc1 | inactive: 8.62% | –
41 | Cn1ncc([N+](=O)[O-])c1C(=O)Nc1ccc(C2CCCCC2)cc1 | – | inconclusive: 7.08 µM [inhibitor, partial curve, poor fit]
42 | CCc1ccc(CNC(=O)c2cc3c(=O)oc4ccc(C)cc4c3s2)cc1 | – | inconclusive: 31.6 µM [activator, single point]
43 | COc1cccc(NC(=O)c2cccc(C)c2[N+](=O)[O-])c1 | – | inconclusive: 3.16 µM [activator, single point]
44 | CC1CCC2C(=O)N(c3cccc(C(=O)Nc4ccccc4Cl)c3)C(=O)C2C1 (centres undefined) | inactive: 13.7% | –
45 | O=C1C(Cl)=C(NCC2CCCO2)C(=O)N1Cc1ccccc1 (centres undefined) | – | inconclusive: 5.17 µM [activator, partial curve, poor fit]
46 | Cn1c(=O)c2c(ncn2C[C@@H](O)CO)n(C)c1=O | inactive: -10.5% | –

An excerpt from above in order of heavy-atom count, low to high:
Row | SMILES | activity change, negative = inhibition | Potency
46 | Cn1c(=O)c2c(ncn2C[C@@H](O)CO)n(C)c1=O | inactive: -10.5% | –
28 | O=C(OCc1ccc(Cl)c(Cl)c1)c1cccnc1Cl | inactive: 9.06% [at 46.1 µM] | –
30 | COc1ccccc1NC(=S)N1CCCc2ccccc21 | – | inconclusive: 1.26 µM [inhibitor, single point]
45 | O=C1C(Cl)=C(NCC2CCCO2)C(=O)N1Cc1ccccc1 (centres undefined) | – | inconclusive: 5.17 µM [activator, partial curve, poor fit]
40 | COc1ccc(-c2cn3c(C)c(C(=O)NC(C)C)sc3n2)cc1 | inactive: 8.62% | –
41 | Cn1ncc([N+](=O)[O-])c1C(=O)Nc1ccc(C2CCCCC2)cc1 | – | inconclusive: 7.08 µM [inhibitor, partial curve, poor fit]
24 | CC1CCC(NC(=O)C2CCN(c3nc4ccccc4s3)CC2)CC1 (centres undefined) | inactive: -16.3% [at 46.1 µM] | –
29 | COc1cc2c(cc1NC(=O)CSc1nccn1C)oc1ccccc12 | – | inconclusive: 29.1 µM [inhibitor, single point]
37 | Cc1cccc(-c2cc3nc4c(c(NCc5ccco5)n3n2)CCCC4)c1 | – | inconclusive: 29.1 µM [inhibitor, single point]
32 | CC(NC(=O)OCc1ccccc1)C(=O)OCN1C(=O)c2ccccc2C1=O (centres undefined) | inactive: -5.71% | –
35 | COc1ccc(CN2c3cc(S(=O)(=O)N4CCOCC4)ccc3N3CCCC32)cc1 (centres undefined) | inactive: 11.4% | –
33 | Cc1c(C(=O)N2CCCCC2)c(S(=O)(=O)N2CCN(c3ccccc3F)CC2)c(C)n1C | inactive: 7.81% [at 46.1 µM] | –
31 | O=C(CSc1nnc(-c2ccccc2)n1Cc1ccccc1)NNC(=O)c1ccccc1O | – | inconclusive: 1.26 µM [inhibitor, single point]
26 | COc1ccccc1OCC(=O)Nc1cc(S(=O)(=O)N2CCOCC2)ccc1N1CCCCC1 | – | inconclusive: 11.2 µM [inhibitor, partial curve, poor fit]
25 | CCOc1ccc(N(C(=O)Cn2nnc3ccccc32)C(C(=O)NC(C)(C)CC)c2cccn2C)cc1 (centres undefined) | inactive: 21.2% | –

Next part

Row | SMILES | activity change, negative = inhibition | Potency
47 | CCOC(=O)C1CCN(C(=O)COc2ccc(Br)cc2)CC1 | – | inconclusive: 1.3 µM [activator, single point]
48 | Cc1csc(NC(=O)CS(=O)(=O)c2ccccc2)n1 | – | inconclusive: 10 µM [activator, partial curve, poor fit]
49 | c1coc(-c2ccnc(-c3ccncc3)n2)c1 | – | inconclusive: 0.562 µM [inhibitor, full curve, poor fit]
50 | O=C(c1cc([N+](=O)[O-])ccc1Cl)N1CCN(Cc2ccc3c(c2)OCO3)CC1 | – | inconclusive: 25.1 µM [inhibitor, single point]
51 | CCNc1c(NS(=O)(=O)c2ccc(Br)s2)c(=O)oc2ccccc12 | – | inconclusive: 1.41 µM [inhibitor, partial curve, poor fit]
52 | Cc1cc(C)nc(SCC(=O)OCC(=O)Nc2ccccc2)n1 | inactive: -2.85% [at 46.1 µM] | –
53 | CC1CC(C)CN(S(=O)(=O)c2ccccc2[N+](=O)[O-])C1 (centres undefined) | inactive: -13.3% | –
54 | CCN(CC(=O)Nc1c(F)cccc1F)C(=O)c1cccc(S(=O)(=O)N2CCc3ccccc3C2)c1 | – | inconclusive: 35.5 µM [inhibitor, single point]
55 | O=C1N(Cc2cccc(Cl)c2)C[C@@H]2C[C@@H](c3cccn3-c3ccccn3)N3CCC[C@@]123 | – | inconclusive: 15.8 µM [inhibitor, partial curve, poor fit]
56 | CCOc1ccc(-c2nnc(Nc3ccc(OC)c(C(=O)N4CCCCC4)c3)c3ccccc23)cc1 | inactive: 3.03% | –
57 | CCOc1ccccc1NC(=O)Cn1c(=O)n(Cc2ccc(C(=O)NCCCOC)cc2)c(=O)c2ccccc21 | inactive: -14.8% [at 46.1 µM] | –
58 | Cn1cc(C(=O)NCc2ccc(F)cc2)c(=O)c2cc(S(=O)(=O)N3CCCCC3)ccc21 | – | inconclusive: 6.31 µM [activator, partial curve, poor fit]
59 | O=C(CSc1ncn(-c2ccccc2)n1)Nc1nc(-c2ccccc2)cs1 | – | inconclusive: 23.1 µM [inhibitor, single point]
60 | CN1CCN(CC(=O)N(Cc2c(C#N)c3ccccc3n2C)c2ccccc2)CC1 | – | inconclusive: 25.9 µM [inhibitor, partial curve, poor fit]
61 | CSc1sc(C(=O)OC(C)C)c2c1C(=O)CC(C)(C)C2 | inactive: 13.7% [at 46.1 µM] | –
62 | CCC(C)NCCC(=O)Nc1ccc(Cl)c(S(=O)(=O)Nc2ccc(Cl)cc2)c1 (centres undefined) | – | active: 11.2 µM
63 | O=S(=O)(c1ccccc1)N(CC(O)Cn1c2ccccc2c2ccccc21)c1ccccc1 (centres undefined) | – | inconclusive: 20 µM [inhibitor, partial curve, poor fit]
64 | COc1ccc(OCC(=O)Nc2ccc(N3CCN(C(=O)c4ccccc4)CC3)c(Cl)c2)cc1 | – | inconclusive: 35.5 µM [inhibitor, single point]
65 | Cn1c2c(c(=O)[nH]c1=O)C(c1ccc(O)cc1)C1=C(N2)c2ccccc2C1=O (centres undefined) | – | inconclusive: 17.8 µM [inhibitor, single point]
66 | CC(=O)c1c(C)oc2ccc(N(C(=O)Oc3ccccc3)S(=O)(=O)c3ccc(Br)cc3)cc12 | inactive: 27.9% [at 46.1 µM] | –
67 | COc1ccc(-c2ccc(NC(=O)c3ccco3)cc2)nn1 | – | inconclusive: 7.08 µM [inhibitor, partial curve, poor fit]
68 | CN(C)CCOCCOc1ccc(Cl)cc1Br | – | inconclusive: 15.8 µM [inhibitor, single point]
69 | Nc1nnc(SCC(=O)NC2CCCCC2)n1-c1ccccc1 | – | inconclusive: 3.16 µM [activator, partial curve, poor fit]
